PMC5042004
No constants are given. Whether binding was seen depends on the method and setting. In cells and extracts the contact can be indirect. Here binding means that the protein was enriched with, or labelled near, the bait; the list need not be complete. Blank lines part the entries; values can stand above or below the substance they belong to.

Protein sequences, listed by entry. Tags and fused reporters are not part of them. Lines headed by an entry give the natural chain unless they say otherwise; changes in a name come on top.
UniProt P15056: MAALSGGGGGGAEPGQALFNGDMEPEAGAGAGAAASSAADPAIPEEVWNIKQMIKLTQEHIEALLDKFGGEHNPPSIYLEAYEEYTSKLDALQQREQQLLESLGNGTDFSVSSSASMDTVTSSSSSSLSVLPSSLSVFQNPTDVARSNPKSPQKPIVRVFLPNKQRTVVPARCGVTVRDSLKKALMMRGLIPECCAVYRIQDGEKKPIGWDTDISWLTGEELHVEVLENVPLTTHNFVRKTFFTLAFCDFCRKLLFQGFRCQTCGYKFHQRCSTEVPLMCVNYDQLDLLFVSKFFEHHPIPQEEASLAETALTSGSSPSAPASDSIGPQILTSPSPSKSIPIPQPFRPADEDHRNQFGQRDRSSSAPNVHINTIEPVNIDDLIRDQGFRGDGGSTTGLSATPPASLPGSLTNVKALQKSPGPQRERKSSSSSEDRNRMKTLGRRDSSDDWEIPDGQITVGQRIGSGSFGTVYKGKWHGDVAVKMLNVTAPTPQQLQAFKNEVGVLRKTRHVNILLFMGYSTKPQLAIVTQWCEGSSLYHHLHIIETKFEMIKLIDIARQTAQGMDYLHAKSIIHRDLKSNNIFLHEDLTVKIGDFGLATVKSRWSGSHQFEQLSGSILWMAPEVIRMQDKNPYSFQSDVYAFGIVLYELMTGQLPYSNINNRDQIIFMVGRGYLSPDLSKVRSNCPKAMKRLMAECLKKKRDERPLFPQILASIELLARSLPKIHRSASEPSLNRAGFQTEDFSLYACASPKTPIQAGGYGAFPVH
UniProt Q9JKF1: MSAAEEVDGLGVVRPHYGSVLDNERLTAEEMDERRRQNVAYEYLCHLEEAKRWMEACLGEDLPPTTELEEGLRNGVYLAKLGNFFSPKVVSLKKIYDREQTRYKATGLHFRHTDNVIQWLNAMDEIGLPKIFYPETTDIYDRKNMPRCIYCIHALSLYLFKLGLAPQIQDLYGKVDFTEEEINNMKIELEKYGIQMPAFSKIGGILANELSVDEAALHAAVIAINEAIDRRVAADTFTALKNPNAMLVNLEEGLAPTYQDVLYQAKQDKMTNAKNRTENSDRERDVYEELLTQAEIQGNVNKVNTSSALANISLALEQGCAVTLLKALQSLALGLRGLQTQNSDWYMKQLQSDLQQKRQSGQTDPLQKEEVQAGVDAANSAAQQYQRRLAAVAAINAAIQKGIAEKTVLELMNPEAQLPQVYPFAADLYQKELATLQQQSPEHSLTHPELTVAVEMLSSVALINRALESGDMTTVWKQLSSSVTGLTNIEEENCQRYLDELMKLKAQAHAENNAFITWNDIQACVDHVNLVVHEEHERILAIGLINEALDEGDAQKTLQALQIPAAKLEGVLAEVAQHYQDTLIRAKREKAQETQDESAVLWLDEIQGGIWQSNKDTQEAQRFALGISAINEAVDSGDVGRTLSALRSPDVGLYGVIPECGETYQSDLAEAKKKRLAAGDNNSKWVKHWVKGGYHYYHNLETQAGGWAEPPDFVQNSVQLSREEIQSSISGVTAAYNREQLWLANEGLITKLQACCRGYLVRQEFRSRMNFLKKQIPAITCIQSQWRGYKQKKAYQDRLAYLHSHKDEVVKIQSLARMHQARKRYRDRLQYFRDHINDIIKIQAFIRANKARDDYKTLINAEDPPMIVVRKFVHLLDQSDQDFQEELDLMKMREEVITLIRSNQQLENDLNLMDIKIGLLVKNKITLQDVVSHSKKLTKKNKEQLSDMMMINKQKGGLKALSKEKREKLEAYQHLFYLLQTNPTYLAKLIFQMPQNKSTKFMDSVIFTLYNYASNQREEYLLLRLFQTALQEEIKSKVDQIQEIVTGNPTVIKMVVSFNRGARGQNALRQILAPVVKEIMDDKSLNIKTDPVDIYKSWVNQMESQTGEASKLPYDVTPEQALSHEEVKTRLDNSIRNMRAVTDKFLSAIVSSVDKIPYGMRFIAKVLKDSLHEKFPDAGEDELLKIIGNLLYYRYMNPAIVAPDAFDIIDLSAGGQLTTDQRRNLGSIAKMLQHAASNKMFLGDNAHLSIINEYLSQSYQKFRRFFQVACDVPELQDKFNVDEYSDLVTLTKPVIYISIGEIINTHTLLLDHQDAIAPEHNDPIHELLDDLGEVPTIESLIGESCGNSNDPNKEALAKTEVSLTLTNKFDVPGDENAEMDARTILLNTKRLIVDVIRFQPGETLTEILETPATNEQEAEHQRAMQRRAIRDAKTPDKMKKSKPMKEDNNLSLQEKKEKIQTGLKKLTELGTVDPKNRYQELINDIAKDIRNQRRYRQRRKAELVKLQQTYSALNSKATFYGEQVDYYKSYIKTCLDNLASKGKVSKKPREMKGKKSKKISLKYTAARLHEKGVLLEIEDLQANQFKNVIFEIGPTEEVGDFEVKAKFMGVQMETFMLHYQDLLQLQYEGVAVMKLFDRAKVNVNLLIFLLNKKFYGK
UniProt P63208: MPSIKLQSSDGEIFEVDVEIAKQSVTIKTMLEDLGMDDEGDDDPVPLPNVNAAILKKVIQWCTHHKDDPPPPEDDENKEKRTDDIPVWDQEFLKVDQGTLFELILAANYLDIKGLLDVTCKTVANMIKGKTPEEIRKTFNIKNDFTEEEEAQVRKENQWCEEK
UniProt Q13526: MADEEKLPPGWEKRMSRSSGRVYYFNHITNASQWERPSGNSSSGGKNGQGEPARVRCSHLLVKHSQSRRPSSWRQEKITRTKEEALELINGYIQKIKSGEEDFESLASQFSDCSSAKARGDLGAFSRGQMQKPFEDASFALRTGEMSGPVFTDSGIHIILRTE
UniProt Q9QY06: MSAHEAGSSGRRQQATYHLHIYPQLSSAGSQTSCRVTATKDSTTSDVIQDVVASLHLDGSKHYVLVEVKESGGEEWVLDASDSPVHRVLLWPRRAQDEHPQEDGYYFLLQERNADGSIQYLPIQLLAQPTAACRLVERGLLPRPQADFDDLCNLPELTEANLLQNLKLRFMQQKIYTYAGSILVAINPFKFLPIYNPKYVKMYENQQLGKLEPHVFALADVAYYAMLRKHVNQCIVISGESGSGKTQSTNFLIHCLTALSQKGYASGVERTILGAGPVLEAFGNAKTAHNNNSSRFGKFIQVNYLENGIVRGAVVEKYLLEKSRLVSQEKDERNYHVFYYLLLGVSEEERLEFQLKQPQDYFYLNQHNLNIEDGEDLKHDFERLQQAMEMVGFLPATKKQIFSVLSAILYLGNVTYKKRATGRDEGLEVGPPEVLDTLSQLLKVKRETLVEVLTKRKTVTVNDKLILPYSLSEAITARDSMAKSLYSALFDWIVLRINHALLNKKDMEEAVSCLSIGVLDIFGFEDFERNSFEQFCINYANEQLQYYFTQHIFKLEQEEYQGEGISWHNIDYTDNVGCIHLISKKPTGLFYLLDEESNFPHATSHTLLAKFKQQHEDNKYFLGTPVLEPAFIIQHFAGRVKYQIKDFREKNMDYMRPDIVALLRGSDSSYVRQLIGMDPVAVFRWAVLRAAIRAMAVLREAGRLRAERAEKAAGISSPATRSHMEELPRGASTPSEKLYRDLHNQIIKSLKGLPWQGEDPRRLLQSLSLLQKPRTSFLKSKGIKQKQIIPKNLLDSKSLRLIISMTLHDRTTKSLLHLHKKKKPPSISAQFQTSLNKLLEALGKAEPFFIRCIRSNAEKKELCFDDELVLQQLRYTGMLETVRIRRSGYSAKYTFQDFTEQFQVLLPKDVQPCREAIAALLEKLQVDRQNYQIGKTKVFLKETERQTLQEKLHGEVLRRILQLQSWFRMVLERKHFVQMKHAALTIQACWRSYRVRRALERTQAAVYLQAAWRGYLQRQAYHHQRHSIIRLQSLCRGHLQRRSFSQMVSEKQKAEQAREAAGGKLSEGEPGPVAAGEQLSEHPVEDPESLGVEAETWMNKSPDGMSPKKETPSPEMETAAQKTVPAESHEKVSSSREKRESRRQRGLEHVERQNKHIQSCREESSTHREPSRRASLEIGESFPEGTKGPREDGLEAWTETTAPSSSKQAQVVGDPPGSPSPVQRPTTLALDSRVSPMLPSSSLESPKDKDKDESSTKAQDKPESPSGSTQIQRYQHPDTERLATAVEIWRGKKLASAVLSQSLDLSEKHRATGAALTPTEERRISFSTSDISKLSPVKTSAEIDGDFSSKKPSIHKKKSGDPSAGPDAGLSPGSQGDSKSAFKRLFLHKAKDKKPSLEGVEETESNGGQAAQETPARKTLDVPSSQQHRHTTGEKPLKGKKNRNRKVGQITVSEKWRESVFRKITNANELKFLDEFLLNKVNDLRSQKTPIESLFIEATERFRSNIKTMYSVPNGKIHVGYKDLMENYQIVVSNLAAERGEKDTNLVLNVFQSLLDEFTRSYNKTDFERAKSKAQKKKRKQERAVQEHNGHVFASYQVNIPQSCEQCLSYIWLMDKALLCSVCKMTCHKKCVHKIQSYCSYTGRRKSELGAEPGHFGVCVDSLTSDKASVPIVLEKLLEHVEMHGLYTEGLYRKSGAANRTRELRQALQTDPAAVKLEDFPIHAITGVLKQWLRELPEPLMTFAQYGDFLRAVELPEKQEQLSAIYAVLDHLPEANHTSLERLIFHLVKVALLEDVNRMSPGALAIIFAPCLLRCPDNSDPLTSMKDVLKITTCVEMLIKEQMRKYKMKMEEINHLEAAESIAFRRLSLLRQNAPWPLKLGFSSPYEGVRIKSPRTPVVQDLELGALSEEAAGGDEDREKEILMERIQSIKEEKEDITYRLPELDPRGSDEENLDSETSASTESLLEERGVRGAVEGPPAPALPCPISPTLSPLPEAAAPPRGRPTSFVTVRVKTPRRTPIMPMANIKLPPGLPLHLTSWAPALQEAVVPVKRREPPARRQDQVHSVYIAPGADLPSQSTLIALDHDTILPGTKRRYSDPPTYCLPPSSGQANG
UniProt Q8N122: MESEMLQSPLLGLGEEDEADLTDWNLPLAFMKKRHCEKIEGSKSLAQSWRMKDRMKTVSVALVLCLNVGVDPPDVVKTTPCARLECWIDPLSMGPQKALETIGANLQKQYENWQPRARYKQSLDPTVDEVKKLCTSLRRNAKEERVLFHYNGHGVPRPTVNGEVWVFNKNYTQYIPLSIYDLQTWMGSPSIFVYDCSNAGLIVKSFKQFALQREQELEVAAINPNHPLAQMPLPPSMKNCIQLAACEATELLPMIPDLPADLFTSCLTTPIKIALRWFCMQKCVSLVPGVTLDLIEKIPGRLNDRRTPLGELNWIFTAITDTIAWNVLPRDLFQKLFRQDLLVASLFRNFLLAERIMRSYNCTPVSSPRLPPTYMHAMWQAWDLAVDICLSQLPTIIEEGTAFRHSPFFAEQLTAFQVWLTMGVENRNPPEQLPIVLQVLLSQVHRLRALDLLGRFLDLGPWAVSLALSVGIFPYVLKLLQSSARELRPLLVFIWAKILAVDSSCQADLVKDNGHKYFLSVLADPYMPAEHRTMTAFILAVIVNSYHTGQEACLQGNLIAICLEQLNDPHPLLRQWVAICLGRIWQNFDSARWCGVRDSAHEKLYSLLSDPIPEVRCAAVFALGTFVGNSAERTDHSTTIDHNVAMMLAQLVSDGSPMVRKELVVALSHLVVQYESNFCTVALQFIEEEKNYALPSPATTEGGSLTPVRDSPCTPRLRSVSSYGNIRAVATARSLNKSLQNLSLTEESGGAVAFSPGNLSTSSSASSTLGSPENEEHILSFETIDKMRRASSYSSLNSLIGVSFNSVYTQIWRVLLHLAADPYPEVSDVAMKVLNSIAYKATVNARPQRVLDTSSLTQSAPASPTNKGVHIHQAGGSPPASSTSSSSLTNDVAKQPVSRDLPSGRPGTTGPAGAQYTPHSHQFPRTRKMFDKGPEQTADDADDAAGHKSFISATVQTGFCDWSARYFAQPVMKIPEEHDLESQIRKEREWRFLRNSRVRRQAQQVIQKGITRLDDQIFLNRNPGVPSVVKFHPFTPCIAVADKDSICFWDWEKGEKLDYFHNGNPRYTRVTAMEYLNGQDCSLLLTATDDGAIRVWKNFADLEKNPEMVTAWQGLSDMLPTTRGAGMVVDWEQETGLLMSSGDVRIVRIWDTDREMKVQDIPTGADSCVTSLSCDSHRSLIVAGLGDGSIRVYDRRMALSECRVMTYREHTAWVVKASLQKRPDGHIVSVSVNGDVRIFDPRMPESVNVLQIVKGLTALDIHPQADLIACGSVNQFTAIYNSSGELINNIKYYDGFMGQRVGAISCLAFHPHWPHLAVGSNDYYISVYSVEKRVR

Key:
[1] = target: HA-tagged B-Raf^WT expressed in MCF-10A cells (UniProt P15056); test: affinity purification with mass spectrometry; anti-HA agarose IP of HA-tagged B-Raf^WT from MCF-10A cells against empty vector cells
[2] = target: HA-tagged B-Raf^D594A re-expressed in Braf deficient MEFs (human) (UniProt P15056); test: affinity purification with mass spectrometry; anti-HA IP of HA-tagged B-Raf^WT or B-Raf^D594A from complemented Braf-/- MEFs expressing H-Ras^G12V::ER^TM; with or without 4-HT and 10 uM sorafenib; SILAC-based MS against vector control or B-Raf^WT IPs
[3] = target: B-Raf (cell system of the purification not given) (not stated (chicken, human or mouse B-Raf)) (UniProt P15056); test: affinity purification with mass spectrometry; IP of endogenous or HA-tagged B-Raf; the text does not tell from which of the four cell systems
[4] = target: HA-tagged B-Raf^WT re-expressed in Braf deficient MEFs (human) (UniProt P15056); test: affinity purification with mass spectrometry; anti-HA IP of HA-tagged B-Raf^WT or B-Raf^D594A from complemented Braf-/- MEFs expressing H-Ras^G12V::ER^TM; with or without 4-HT and 10 uM sorafenib; SILAC-based MS against vector control or B-Raf^WT IPs
[5] = target: endogenous B-Raf of MEFs (mouse (endogenous in MEFs)) (UniProt P28028); test: affinity purification with mass spectrometry; IP of endogenous B-Raf from MEFs against IgG control IPs; SILAC-based MS
[6] = target: HA-tagged chicken B-Raf (chicken) (UniProt Q04982); test: affinity purification with mass spectrometry; anti-HA IP of HA-tagged chicken B-Raf from complemented B-Raf/Raf-1 deficient DT40 cells against empty vector cells; label-free and SILAC-based MS; two biological replicates

Substance: IQGAP3 (human, MCF-10A) (from UniProt Q86VI3 1-1631)
binding [1]: binds

Substance: IQGAP1 (mouse, MEFs) (from UniProt Q9JKF1 1-1657)
binding [4]: binds
binding [5]: binds

Substance: IQGAP1 (human, MCF-10A) (from UniProt P46940 1-1657)
binding [1]: binds

Substance: Skp1 (from UniProt P63208 1-163)
binding [3]: binds

Substance: peptidyl-prolyl-cis/trans-isomerase Pin1 (from UniProt Q13526 1-163) (enzyme)
binding [3]: binds

More lines, now with the values ahead:

binding [2]: binds
Substance: Myosin 9b (mouse, MEFs) (from UniProt Q9QY06 1-2114)

binding [3]: binds
Substance: Raptor subunit of the mTOR complex (from UniProt Q8N122 1-1335)

binding [2]: binds
Substance: phospholipase D2 (mouse, MEFs) (from UniProt P97813 1-933) (enzyme)

binding [6]: binds
Substance: USP7 (chicken, DT40) (from UniProt Q6U7I1 1-1101) (enzyme)
